In patent US4026857A, “Epoxy emulsion water-based coating” (priority 1975, dated 1977):

Test: Wet film wetting characteristics of emulsions made with different solvents
Design: key: Wetted: If the film is continuous without breaks, it is rated as "wetted"; Dewetted: If, however, the film is discontinuous with breaks in it, it is rated as "dewetted"
Settings: emulsion with 50 parts of the solvent per 100 parts epoxy resin; wire wound bar application to lubricated electrolytic tinplated steel

SMILES	Film Wetting Characteristic
CCCCOCCO [Butyl Cellosolve]	Dewetted
CCOCCO [Ethyl Cellosolve]	Dewetted
CCCCCC(=O)CC [Ethyl amyl ketone]	Dewetted
CCCCCCOCCOCCO [Hexyl Carbitol, diethylene glycol monohexyl ether]	Wetted
CCCCCCOCCO [Hexyl Cellosolve, 2-Hexoxyethanol]	Wetted
COCCO [Methyl Cellosolve]	Dewetted
CCC(C)=O [Methyl ethyl ketone]	Dewetted
